Source: article PMC11941830
No constants are given. Whether binding was seen depends on the method and setting. In cells and extracts the contact can be indirect. Some binding calls cover weakened binding; strength is not graded here. Sequences can lack the tags named with a protein.

Chains of the proteins cited; added tags and fusions are not shown. Residues count along the entry.
UniProt P02787, residues 20-698: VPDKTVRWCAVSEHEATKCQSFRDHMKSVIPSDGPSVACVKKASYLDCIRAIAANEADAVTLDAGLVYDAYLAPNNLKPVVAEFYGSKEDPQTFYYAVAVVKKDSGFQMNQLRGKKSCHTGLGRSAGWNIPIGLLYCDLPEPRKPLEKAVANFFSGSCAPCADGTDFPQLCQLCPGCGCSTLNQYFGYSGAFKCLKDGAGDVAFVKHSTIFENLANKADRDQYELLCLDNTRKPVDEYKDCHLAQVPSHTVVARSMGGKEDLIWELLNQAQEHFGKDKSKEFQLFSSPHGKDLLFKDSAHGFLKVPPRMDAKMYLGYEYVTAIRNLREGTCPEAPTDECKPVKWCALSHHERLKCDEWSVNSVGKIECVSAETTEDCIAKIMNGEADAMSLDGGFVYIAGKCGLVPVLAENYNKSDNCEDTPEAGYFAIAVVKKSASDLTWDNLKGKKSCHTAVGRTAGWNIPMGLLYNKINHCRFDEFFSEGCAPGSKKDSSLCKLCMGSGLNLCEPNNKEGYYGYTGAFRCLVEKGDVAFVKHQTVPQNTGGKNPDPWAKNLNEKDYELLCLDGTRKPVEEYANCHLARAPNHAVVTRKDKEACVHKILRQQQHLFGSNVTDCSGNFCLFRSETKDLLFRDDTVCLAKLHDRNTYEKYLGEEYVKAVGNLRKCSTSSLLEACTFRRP

Target: T1, Full-length human hephaestin, wild type, with a C-terminal FLAG-tag (human) (UniProt Q9BQS7)
T1 sequence: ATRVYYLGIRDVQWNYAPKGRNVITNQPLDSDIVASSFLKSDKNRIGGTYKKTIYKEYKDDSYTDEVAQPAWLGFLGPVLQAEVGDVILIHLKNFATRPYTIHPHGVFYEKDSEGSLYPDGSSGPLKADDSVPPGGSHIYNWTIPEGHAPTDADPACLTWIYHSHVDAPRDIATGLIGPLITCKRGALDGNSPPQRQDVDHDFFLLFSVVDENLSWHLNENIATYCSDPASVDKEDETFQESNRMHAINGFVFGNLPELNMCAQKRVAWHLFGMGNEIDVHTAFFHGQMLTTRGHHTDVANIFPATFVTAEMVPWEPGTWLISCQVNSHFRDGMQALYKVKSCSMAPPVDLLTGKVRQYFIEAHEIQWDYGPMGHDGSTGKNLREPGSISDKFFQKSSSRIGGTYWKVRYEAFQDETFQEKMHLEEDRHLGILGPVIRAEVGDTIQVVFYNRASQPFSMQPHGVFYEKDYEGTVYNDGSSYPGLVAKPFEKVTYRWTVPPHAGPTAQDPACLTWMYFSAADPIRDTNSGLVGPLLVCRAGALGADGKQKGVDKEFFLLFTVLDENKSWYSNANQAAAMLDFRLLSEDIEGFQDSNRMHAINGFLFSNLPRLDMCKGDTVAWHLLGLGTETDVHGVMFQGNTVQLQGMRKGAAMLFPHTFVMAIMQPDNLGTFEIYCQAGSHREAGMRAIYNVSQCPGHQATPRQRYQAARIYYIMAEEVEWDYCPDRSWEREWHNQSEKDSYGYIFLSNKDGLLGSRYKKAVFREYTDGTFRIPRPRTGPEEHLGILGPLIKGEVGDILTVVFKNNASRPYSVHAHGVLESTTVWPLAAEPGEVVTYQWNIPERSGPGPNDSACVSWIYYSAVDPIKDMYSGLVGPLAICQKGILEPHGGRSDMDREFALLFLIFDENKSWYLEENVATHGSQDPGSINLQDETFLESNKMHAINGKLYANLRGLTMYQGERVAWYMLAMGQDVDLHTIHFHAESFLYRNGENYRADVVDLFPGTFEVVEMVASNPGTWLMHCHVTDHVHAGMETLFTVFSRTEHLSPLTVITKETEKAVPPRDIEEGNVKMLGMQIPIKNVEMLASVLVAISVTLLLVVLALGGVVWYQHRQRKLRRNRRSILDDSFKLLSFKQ
Test: co-IP; HEK293T expressing full-length Heph incubated for 30 min with 0.25 µM apo-Tfn or holo-Tfn in serum-free medium; DSP cross-linking before lysis; DYKDDDDK Fab-Trap immunoprecipitation; anti-Tfn blot; only the binder purified

binding: binds
Substance: Apo-transferrin (iron-depleted transferrin) (from UniProt P02787 20-698)
